The target in the experiment is GFP-CEP19 C-terminal half (residues 85-167). The experiment in a line: co-IP; GFP fusions of CEP19 precipitated from transfected HEK 293 lysate with goat GFP antibody on Protein G Sepharose, 4 °C; 50 mM HEPES pH 8, 100 mM KCl, 2 mM EDTA, 10% glycerol, 0.1% NP-40, 1 mM DTT; blots for endogenous proteins.

These are yes or no findings as the source states them, for the method shown. In cells and extracts the contact can be indirect. Binding calls can cover weak binding; strength is not graded here.

B1: FGFR1OP (FOP) (protein, UniProt O95684 1-399)
chain: MAATAAAVVAEEDTELRDLLVQTLENSGVLNRIKAELRAAVFLALEEQEKVENKTPLVNESLKKFLNTKDGRLVASLVAEFLQFFNLDFTLAVFQPETSTLQGLEGRENLARDLGIIEAEGTVGGPLLLEVIRRCQQKEKGPTTGEGALDLSDVHSPPKSPEGKTSAQTTPSKIPRYKGQGKKKTSGQKAGDKKANDEANQSDTSVSLSEPKSKSSLHLLSHETKIGSFLSNRTLDGKDKAGLCPDEDDMEGDSFFDDPIPKPEKTYGLRKEPRKQAGSLASLSDAPPLKSGLSSLAGAPSLKDSESKRGNTVLKDLKLISDKIGSLGLGTGEDDDYVDDFNSTSHRSEKSEISIGEEIEEDLSVEIDDINTSDKLDDLTQDLTVSQLSDVADYLEDVA
With B1, the binding entry is recorded as “binds”.

(Values after paper PMC5493781.)
